Our source for the binding values is PMC10117376.

By UniProt entry, the sequences of proteins in these tests, tags left out.
UniProt Q16650: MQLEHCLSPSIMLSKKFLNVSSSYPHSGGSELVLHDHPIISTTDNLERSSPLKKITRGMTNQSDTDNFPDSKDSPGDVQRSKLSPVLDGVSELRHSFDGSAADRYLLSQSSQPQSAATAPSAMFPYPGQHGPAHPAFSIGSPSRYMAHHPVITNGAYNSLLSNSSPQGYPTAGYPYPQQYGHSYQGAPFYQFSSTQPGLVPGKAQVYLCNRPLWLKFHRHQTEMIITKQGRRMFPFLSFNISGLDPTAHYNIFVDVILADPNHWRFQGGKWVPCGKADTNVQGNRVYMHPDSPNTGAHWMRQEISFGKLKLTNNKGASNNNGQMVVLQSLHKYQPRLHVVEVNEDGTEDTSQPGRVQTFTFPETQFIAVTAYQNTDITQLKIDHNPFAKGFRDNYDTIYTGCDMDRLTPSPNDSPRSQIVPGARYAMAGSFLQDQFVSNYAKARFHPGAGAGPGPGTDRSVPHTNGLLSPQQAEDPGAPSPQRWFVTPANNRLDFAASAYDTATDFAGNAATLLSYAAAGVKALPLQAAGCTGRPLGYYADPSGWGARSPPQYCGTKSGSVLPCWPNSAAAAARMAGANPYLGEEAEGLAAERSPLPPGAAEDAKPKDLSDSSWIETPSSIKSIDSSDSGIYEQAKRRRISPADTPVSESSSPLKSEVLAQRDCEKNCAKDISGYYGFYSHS
UniProt Q86UP3: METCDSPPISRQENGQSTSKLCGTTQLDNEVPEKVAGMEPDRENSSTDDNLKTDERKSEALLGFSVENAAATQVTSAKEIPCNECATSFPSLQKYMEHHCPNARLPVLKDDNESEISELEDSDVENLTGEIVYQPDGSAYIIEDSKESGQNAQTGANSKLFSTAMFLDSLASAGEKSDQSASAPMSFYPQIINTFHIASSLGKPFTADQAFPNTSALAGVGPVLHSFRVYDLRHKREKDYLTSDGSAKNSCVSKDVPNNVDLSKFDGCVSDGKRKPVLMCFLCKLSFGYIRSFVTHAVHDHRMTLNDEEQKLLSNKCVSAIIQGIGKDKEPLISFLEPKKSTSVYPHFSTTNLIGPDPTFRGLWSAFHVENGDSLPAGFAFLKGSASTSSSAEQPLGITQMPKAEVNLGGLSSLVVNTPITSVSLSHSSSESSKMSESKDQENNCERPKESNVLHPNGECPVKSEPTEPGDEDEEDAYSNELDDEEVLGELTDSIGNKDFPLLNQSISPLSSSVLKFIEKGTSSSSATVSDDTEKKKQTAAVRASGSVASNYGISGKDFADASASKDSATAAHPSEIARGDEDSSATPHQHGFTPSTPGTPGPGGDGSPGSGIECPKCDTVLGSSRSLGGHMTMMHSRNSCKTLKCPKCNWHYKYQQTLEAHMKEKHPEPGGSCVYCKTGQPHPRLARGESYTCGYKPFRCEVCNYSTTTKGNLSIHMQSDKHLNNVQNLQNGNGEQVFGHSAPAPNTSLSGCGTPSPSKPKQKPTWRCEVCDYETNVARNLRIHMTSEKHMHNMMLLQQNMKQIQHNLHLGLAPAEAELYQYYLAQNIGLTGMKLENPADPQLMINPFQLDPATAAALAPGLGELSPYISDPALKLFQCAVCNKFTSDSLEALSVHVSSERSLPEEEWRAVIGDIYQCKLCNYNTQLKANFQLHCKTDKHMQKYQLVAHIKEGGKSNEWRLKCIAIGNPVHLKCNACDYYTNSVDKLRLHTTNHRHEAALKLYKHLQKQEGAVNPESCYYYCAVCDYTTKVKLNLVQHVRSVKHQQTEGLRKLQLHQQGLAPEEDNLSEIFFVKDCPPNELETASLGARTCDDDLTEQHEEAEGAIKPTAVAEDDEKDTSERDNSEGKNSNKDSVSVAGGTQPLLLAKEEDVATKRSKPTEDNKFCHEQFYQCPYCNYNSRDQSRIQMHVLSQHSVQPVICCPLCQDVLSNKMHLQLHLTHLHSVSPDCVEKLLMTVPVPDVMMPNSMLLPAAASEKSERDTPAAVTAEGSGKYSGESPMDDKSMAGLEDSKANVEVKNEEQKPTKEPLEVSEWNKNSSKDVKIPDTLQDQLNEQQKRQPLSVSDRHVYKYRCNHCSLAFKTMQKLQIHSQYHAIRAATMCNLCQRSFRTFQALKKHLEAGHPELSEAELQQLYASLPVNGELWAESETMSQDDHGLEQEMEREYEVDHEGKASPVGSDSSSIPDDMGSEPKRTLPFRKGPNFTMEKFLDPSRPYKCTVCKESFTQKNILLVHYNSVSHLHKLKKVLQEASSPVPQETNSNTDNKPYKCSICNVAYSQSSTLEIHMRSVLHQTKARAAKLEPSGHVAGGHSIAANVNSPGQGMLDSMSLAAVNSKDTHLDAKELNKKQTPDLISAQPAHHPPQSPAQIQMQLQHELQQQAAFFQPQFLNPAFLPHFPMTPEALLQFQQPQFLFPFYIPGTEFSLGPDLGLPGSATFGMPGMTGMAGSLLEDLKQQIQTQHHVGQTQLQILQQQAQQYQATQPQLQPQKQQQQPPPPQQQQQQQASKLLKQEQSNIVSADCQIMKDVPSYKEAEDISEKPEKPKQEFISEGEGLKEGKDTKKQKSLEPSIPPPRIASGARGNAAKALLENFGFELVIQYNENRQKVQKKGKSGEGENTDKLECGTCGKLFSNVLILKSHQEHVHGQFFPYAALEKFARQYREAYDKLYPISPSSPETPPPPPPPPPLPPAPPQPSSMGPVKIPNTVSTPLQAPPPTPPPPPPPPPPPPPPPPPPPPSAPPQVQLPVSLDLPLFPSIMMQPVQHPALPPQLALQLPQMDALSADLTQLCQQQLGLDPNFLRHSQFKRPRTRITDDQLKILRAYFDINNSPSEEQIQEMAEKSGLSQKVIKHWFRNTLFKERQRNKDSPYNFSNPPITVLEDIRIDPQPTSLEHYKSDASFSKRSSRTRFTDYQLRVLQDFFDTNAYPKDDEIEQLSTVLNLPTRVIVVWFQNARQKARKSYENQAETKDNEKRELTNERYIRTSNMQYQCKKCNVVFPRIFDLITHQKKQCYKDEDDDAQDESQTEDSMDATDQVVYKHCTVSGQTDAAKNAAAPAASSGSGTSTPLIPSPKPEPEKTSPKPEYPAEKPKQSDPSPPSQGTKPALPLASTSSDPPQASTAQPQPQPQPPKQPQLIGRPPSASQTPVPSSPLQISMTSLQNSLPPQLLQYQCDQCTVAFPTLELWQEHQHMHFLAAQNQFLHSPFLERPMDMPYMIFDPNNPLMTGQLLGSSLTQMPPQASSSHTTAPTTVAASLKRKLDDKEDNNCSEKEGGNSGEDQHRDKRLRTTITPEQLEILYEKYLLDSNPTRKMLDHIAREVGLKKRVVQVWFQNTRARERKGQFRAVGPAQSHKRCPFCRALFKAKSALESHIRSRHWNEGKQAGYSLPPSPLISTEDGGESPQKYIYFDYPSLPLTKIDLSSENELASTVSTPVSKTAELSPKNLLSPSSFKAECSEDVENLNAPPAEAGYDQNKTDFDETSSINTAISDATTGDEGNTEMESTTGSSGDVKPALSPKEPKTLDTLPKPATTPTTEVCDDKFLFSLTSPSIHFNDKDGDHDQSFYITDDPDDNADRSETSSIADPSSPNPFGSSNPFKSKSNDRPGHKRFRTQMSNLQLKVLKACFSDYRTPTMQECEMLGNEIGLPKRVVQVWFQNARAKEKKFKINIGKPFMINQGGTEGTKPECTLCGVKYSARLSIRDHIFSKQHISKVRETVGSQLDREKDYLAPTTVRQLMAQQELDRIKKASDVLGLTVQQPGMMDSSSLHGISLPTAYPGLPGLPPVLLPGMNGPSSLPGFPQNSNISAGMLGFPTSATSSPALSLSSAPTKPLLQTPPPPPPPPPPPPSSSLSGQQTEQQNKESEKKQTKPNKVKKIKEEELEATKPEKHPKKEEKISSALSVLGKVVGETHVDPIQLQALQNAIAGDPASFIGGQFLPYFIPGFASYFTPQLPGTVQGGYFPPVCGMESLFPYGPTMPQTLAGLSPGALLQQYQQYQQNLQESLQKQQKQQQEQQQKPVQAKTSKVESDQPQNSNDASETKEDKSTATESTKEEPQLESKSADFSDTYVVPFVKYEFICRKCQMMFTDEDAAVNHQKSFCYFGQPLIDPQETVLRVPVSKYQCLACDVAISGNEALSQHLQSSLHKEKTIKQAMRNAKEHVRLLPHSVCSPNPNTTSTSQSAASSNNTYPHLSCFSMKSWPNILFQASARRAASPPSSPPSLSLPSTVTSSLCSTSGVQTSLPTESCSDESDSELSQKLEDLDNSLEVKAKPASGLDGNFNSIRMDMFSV
UniProt Q6W2J9: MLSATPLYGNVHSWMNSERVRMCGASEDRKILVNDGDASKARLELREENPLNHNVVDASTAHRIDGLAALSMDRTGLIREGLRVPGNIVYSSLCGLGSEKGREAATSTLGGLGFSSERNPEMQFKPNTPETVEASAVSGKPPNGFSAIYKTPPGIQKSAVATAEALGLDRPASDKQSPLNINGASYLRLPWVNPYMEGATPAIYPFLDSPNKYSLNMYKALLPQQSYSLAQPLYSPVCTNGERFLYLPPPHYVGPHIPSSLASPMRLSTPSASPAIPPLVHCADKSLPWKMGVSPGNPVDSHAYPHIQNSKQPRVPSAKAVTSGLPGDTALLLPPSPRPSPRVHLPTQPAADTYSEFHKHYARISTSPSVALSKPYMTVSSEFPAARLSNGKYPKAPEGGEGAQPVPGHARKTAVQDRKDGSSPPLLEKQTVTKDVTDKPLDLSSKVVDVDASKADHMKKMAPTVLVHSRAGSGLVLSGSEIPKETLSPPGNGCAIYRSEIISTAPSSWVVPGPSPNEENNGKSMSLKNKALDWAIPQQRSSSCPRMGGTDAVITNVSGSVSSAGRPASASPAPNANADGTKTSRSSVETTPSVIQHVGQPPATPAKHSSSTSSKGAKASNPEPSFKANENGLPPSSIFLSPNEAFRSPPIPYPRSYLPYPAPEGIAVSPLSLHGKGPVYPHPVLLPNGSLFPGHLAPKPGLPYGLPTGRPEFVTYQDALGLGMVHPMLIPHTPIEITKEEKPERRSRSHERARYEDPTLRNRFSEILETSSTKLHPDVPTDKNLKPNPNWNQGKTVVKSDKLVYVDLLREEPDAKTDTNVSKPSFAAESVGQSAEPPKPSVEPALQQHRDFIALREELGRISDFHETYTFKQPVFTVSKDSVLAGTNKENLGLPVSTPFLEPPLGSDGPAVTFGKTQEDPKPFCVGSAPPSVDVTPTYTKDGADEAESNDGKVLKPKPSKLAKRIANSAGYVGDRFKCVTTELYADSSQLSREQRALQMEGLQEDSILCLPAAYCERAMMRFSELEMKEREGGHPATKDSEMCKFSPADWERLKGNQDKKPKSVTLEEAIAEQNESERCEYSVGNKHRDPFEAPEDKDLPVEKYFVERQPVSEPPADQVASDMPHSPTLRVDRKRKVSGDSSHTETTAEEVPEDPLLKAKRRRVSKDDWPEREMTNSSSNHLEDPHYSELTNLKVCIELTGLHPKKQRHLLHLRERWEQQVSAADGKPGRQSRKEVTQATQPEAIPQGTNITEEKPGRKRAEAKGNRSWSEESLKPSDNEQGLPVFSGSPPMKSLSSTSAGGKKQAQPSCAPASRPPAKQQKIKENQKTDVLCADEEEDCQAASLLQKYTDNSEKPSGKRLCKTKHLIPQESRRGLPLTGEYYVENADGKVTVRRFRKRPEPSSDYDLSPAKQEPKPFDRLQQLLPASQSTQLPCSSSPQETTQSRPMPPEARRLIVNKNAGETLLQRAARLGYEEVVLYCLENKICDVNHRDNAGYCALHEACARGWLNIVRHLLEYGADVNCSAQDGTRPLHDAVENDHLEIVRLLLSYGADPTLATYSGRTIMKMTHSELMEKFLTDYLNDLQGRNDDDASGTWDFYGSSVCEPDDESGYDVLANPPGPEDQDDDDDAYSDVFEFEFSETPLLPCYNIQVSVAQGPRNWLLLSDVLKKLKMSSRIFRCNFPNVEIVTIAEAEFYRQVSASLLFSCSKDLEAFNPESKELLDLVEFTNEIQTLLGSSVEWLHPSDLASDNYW
UniProt Q9UNE7: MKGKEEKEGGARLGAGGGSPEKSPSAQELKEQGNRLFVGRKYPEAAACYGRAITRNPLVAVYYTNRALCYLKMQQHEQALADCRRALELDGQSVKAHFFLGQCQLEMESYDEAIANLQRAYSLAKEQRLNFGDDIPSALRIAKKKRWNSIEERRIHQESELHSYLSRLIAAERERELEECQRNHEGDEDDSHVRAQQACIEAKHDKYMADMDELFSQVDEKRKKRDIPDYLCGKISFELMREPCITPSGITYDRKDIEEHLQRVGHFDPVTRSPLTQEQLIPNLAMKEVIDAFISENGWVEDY

These are yes or no findings as the source states them, for the method shown. Binding seen in cells or lysates may run through a third protein. These calls come from enrichment with a bait or labelling near it, and not all partners need be listed.

The labels stand for the following.
B1: MED23 (protein, UniProt Q9ULK4 1-1368)
chain: METQLQSIFEEVVKTEVIEEAFPGMFMDTPEDEKTKLISCLGAFRQFWGGLSQESHEQCIQWIVKFIHGQHSPKRISFLYDCLAMAVETGLLPPRLVCESLINSDTLEWERTQLWALTFKLVRKIIGGVDYKGVRDLLKVILEKILTIPNTVSSAVVQQLLAAREVIAYILERNACLLPAYFAVTEIRKLYPEGKLPHWLLGNLVSDFVDTFRPTARINSICGRCSLLPVVNNSGAICNSWKLDPATLRFPLKGLLPYDKDLFEPQTALLRYVLEQPYSRDMVCNMLGLNKQHKQRCPVLEDQLVDLVVYAMERSETEEKFDDGGTSQLLWQHLSSQLIFFVLFQFASFPHMVLSLHQKLAGRGLIKGRDHLMWVLLQFISGSIQKNALADFLPVMKLFDLLYPEKEYIPVPDINKPQSTHAFAMTCIWIHLNRKAQNDNSKLQIPIPHSLRLHHEFLQQSLRNKSLQMNDYKIALLCNAYSTNSECFTLPMGALVETIYGNGIMRIPLPGTNCMASGSITPLPMNLLDSLTVHAKMSLIHSIATRVIKLAHAKSSVALAPALVETYSRLLVYMEIESLGIKGFISQLLPTVFKSHAWGILHTLLEMFSYRMHHIQPHYRVQLLSHLHTLAAVAQTNQNQLHLCVESTALRLITALGSSEVQPQFTRFLSDPKTVLSAESEELNRALILTLARATHVTDFFTGSDSIQGTWCKDILQTIMSFTPHNWASHTLSCFPGPLQAFFKQNNVPQESRFNLKKNVEEEYRKWKSMSNENDIITHFSMQGSPPLFLCLLWKMLLETDHINQIGYRVLERIGARALVAHVRTFADFLVYEFSTSAGGQQLNKCIEILNDMVWKYNIVTLDRLILCLAMRSHEGNEAQVCYFIIQLLLLKPNDFRNRVSDFVKENSPEHWLQNDWHTKHMNYHKKYPEKLYFEGLAEQVDPPVQIQSPYLPIYFGNVCLRFLPVFDIVIHRFLELLPVSKSLETLLDHLGGLYKFHDRPVTYLYNTLHYYEMHLRDRAFLKRKLVHAIIGSLKDNRPQGWCLSDTYLKCAMNAREENPWVPDDTYYCRLIGRLVDTMAGKSPGPFPNCDWRFNEFPNPAAHALHVTCVELMALAVSGKEVGNALLNVVLKSQPLVPRENITAWMNAIGLIITALPEPYWIVLHDRIVSVISSPSLTSETEWVGYPFRLFDFTACHQSYSEMSCSYTLALAHAVWHHSSIGQLSLIPKFLTEVLLPIVKTEFQLLYVYHLVGPFLQRFQQERTRCMIEIGVAFYDMLLNVDQCSTHLNYMDPICDFLYHMKYMFTGDSVKEQVEKIICNLKPALKLRLRFITHISKMEPAAVPPQAMNSGSPAPQSNQVPVSLPVTQ
B2: PLOD1 (protein, UniProt Q02809 19-727)
chain: KGDAKPEDNLLVLTVATKETEGFRRFKRSAQFFNYKIQALGLGEDWNVEKGTSAGGGQKVRLLKKALEKHADKEDLVILFADSYDVLFASGPRELLKKFRQARSQVVFSAEELIYPDRRLETKYPVVSDGKRFLGSGGFIGYAPNLSKLVAEWEGQDSDSDQLFYTKIFLDPEKREQINITLDHRCRIFQNLDGALDEVVLKFEMGHVRARNLAYDTLPVLIHGNGPTKLQLNYLGNYIPRFWTFETGCTVCDEGLRSLKGIGDEALPTVLVGVFIEQPTPFVSLFFQRLLRLHYPQKHMRLFIHNHEQHHKAQVEEFLAQHGSEYQSVKLVGPEVRMANADARNMGADLCRQDRSCTYYFSVDADVALTEPNSLRLLIQQNKNVIAPLMTRHGRLWSNFWGALSADGYYARSEDYVDIVQGRRVGVWNVPYISNIYLIKGSALRGELQSSDLFHHSKLDPDMAFCANIRQQDVFMFLTNRHTLGHLLSLDSYRTTHLHNDLWEVFSNPEDWKEKYIHQNYTKALAGKLVETPCPDVYWFPIFTEVACDELVEEMEHFGQWSLGNNKDNRIQGGYENVPTIDIHMNQIGFEREWHKFLLEYIAPMTEKLYPGYYTRAQFDLAFVVRYKPDEQPSLMPHHDASTFTINIALNRVGVDYEGGGCRFLRYNCSIRAPRKGWTLMHPGRLTHYHEGLPTTRGTRYIAVSFVDP
B3: PMPCA (protein, UniProt Q10713 34-525)
chain: SSGGAYPNIPLSSPLPGVPKPVFATVDGQEKFETKVTTLDNGLRVASQNKFGQFCTVGILINSGSRYEAKYLSGIAHFLEKLAFSSTARFDSKDEILLTLEKHGGICDCQTSRDTTMYAVSADSKGLDTVVALLADVVLQPRLTDEEVEMTRMAVQFELEDLNLRPDPEPLLTEMIHEAAYRENTVGLHRFCPTENVAKINREVLHSYLRNYYTPDRMVLAGVGVEHEHLVDCARKYLLGVQPAWGSAEAVDIDRSVAQYTGGIAKLERDMSNVSLGPTPIPELTHIMVGLESCSFLEEDFIPFAVLNMMMGGGGSFSAGGPGKGMFSRLYLNVLNRHHWMYNATSYHHSYEDTGLLCIHASADPRQVREMVEIITKEFILMGGTVDTVELERAKTQLTSMLMMNLESRPVIFEDVGRQVLATRSRKLPHELCTLIRNVKPEDVKRVASKMLRGKPAVAALGDLTDLPTYEHIQTALSSKDGRLPRTYRLFR
B4: PMPCB (protein, UniProt O75439 44-489)
chain: STQAATQVVLNVPETRVTCLESGLRVASEDSGLSTCTVGLWIDAGSRYENEKNNGTAHFLEHMAFKGTKKRSQLDLELEIENMGAHLNAYTSREQTVYYAKAFSKDLPRAVEILADIIQNSTLGEAEIERERGVILREMQEVETNLQEVVFDYLHATAYQNTALGRTILGPTENIKSISRKDLVDYITTHYKGPRIVLAAAGGVSHDELLDLAKFHFGDSLCTHKGEIPALPPCKFTGSEIRVRDDKMPLAHLAIAVEAVGWAHPDTICLMVANTLIGNWDRSFGGGMNLSSKLAQLTCHGNLCHSFQSFNTSYTDTGLWGLYMVCESSTVADMLHVVQKEWMRLCTSVTESEVARARNLLKTNMLLQLDGSTPICEDIGRQMLCYNRRIPIPELEARIDAVNAETIREVCTKYIYNRSPAIAAVGPIKQLPDFKQIRSNMCWLRD
B5: ADNP (endogenous) (protein, UniProt Q9H2P0 1-1102)
chain: MFQLPVNNLGSLRKARKTVKKILSDIGLEYCKEHIEDFKQFEPNDFYLKNTTWEDVGLWDPSLTKNQDYRTKPFCCSACPFSSKFFSAYKSHFRNVHSEDFENRILLNCPYCTFNADKKTLETHIKIFHAPNASAPSSSLSTFKDKNKNDGLKPKQADSVEQAVYYCKKCTYRDPLYEIVRKHIYREHFQHVAAPYIAKAGEKSLNGAVPLGSNAREESSIHCKRCLFMPKSYEALVQHVIEDHERIGYQVTAMIGHTNVVVPRSKPLMLIAPKPQDKKSMGLPPRIGSLASGNVRSLPSQQMVNRLSIPKPNLNSTGVNMMSSVHLQQNNYGVKSVGQGYSVGQSMRLGLGGNAPVSIPQQSQSVKQLLPSGNGRSYGLGSEQRSQAPARYSLQSANASSLSSGQLKSPSLSQSQASRVLGQSSSKPAAAATGPPPGNTSSTQKWKICTICNELFPENVYSVHFEKEHKAEKVPAVANYIMKIHNFTSKCLYCNRYLPTDTLLNHMLIHGLSCPYCRSTFNDVEKMAAHMRMVHIDEEMGPKTDSTLSFDLTLQQGSHTNIHLLVTTYNLRDAPAESVAYHAQNNPPVPPKPQPKVQEKADIPVKSSPQAAVPYKKDVGKTLCPLCFSILKGPISDALAHHLRERHQVIQTVHPVEKKLTYKCIHCLGVYTSNMTASTITLHLVHCRGVGKTQNGQDKTNAPSRLNQSPSLAPVKRTYEQMEFPLLKKRKLDDDSDSPSFFEEKPEEPVVLALDPKGHEDDSYEARKSFLTKYFNKQPYPTRREIEKLAASLWLWKSDIASHFSNKRKKCVRDCEKYKPGVLLGFNMKELNKVKHEMDFDAEWLFENHDEKDSRVNASKTADKKLNLGKEDDSSSDSFENLEEESNESGSPFDPVFEVEPKISNDNPEEHVLKVIPEDASESEEKLDQKEDGSKYETIHLTEEPTKLMHNASDSEVDQDDVVEWKDGASPSESGPGSQQVSDFEDNTCEMKPGTWSDESSQSEDARSSKPAAKKKATMQGDREQLKWKNSSYGKVEGFWSKDQSQWKNASENDERLSNPQIEWQNSTIDSEDGEQFDNMTDGVAEPMHGSLAGVKLSSQQA
B6: LIN7C (protein, UniProt Q9NUP9 1-197)
chain: MAALGEPVRLERDICRAIELLEKLQRSGEVPPQKLQALQRVLQSEFCNAVREVYEHVYETVDISSSPEVRANATAKATVAAFAASEGHSHPRVVELPKTEEGLGFNIMGGKEQNSPIYISRIIPGGIADRHGGLKRGDQLLSVNGVSVEGEHHEKAVELLKAAQGKVKLVVRYTPKVLEEMESRFEKMRSAKRRQQT

For one assay, the target named is 2×FLAG/V5-TBR1 (human) (UniProt Q16650). The assay is described as follows: affinity purification with mass spectrometry; nuclear extract of HEK293 cells stably expressing 2xFLAG/V5-TBR1 on anti-FLAG M2 agarose beads, 3 h at 4°C, buffer C-100 (20 mM HEPES pH 7.6, 20% glycerol, 100 mM KCl, 1.5 mM MgCl2, 0.2 mM EDTA) with benzonase and ethidium bromide; eluted with FLAG-tripeptide; two independent purifications (AP1, AP2); untransfected cells as control.
Regarding ZFHX4 (from UniProt Q86UP3 1-3567), the binding result was “binds”.

For TP53 (from UniProt P04637 1-393), the binding result is on record as “binds”. Still for that read-out and setting: to ZMYM4 (from UniProt Q5VZL5 1-1548) belongs “binds”; to “BCOR (endogenous) (from UniProt Q6W2J9 1-1755)”, “binds”; to RAD50 (from UniProt Q92878 1-1312), “binds”. With ANK3 (from UniProt Q12955 1-4377), the binding result was “binds”.

On to ANK2 (from UniProt Q01484 1-3957), for which the binding entry is “binds”. Regarding MYO9B (from UniProt Q13459 1-2157), the binding entry is listed as “binds”.

With “nuclear cap-binding protein NCBP1 (from UniProt Q09161 1-790)”, the binding entry is reported as “binds”. Regarding “GATAD2B (endogenous) (from UniProt Q8WXI9 1-593)”, the binding entry was “binds”. Take EPB41L2 (from UniProt O43491 1-1005): the binding entry is “binds”. PAXIP1 (from UniProt Q6ZW49 1-1069): the binding entry is given as “binds”.

Turning to CYFIP2 (from UniProt Q96F07 1-1278), the binding entry is on record as “binds”. The same measure, in the same setting: under STUB1 (from UniProt Q9UNE7 1-303) stands “binds”. Take CHD7 (from UniProt Q9P2D1 1-2997): the binding entry is listed as “binds”.

Another assay shares this target. The assay is described as above. This is another data set of the same source.
For B1, the binding result was “binds”. For B2, the binding entry is “binds”.

For B3, the binding entry is on record as “binds”. The same measure, in the same setting: under B4 stands “binds”; under B5, “binds”. Same read-out and setting: under B6 stands “binds”.
